## Percent effect of library compounds

Mtb cholesterol medium: 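Growth of Mycobacterium tuberculosis over 4 days (cholesterol / DPPC medium with tyloxapol); the read-out is not stated. Tested at 50 µM. The record gives no direction; compounds that gave an IC50 in retests scored well above the rest, so higher reads as more growth inhibition. Size under these conditions: about 69,000 compounds, about 370 of them at 50% or above in at least one test.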
Mtb glucose medium: 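Growth of Mycobacterium tuberculosis over 3 days (7H9 medium with glucose and tyloxapol); the read-out is not stated. Tested at 50 µM. Direction is inferred from retests: higher values go with more growth inhibition. About 69,000 compounds were tested under these conditions; 1.1% (about 760) showed 50% or more at least once.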

Results are given as percent effect.
The record does not define 0% and 100%; most values in the screen are far below 50% and negative numbers occur (in some assays of this library far below -100).
Compounds were drawn at random from those tested, without regard to their results.
Two or more numbers in one place are separate tests of the same structure; such repeats can differ widely.

structure,Mtb cholesterol medium,Mtb glucose medium
Cc1cnc(CN2CCN(C(C)c3nc(C(C)C)no3)CC2)cn1 (configuration not stated),-11.86,-21.14
Cc1cnn(CC2CCCN2Cc2cc(=O)n3cc(C)ccc3n2)c1 (configuration not stated),10.47,-30.04 and 4.424
O=C(O)C(F)(F)F.[H][C@]12CCC[C@@H](CNc3ccccn3)[C@@]1([H])CN(c1ncccn1)C2,23.54,9.292
CCOCC(O)CN1CCN(C(=O)c2ccc(OC)cc2F)CC1 (configuration not stated),-22.03,10.62
COc1ccc(C2CCCN2c2cnc3ccccc3n2)c(OC)c1 (configuration not stated),-10.17,6.461
NC[C@H]1CC[C@H](C(NC(=O)c2ccccn2)c2ccccn2)CC1 (some centres not stated),-20.53,-20.87
Cc1nc(N2CCN(c3ccccc3)CC2)c2c(n1)c(C)nn2C,1.755,14.83
[H][C@@]12CCN(C(=O)c3cscn3)[C@]1([H])CN(S(C)(=O)=O)C2,-4.135,-11.41
Cc1ccc(C(=O)N(C2CC2)C2CC(=O)NC2=O)cc1F (configuration not stated),8.52,-11.38
COc1ncccc1C(=O)NCCn1cnc(C)cc1=O,-5.149,2.539
NC(=O)c1ccc(CN2C(=O)C3(CCNCC3)Nc3ccccc32)cc1,3.983,14.58
COc1cc(C(C)=O)ccc1SCC(=O)Nc1cccc(C)n1,5.049,13.19
COCCN1CCCN(C(=O)c2scnc2C)CC1,-6.831,6.784
CCOc1nc2cccnc2n(CC(=O)NCCOC)c1=O,-1.617,17.57
O=C(O)C(F)(F)F.[H][C@@]12CCCO[C@]1([H])[C@H](N1CCOCC1)CN(C(=O)c1ccccc1)C2,12.94,3.978 and -4.808
O=C(C1CC1)N1CCC2(COCc3cnc(N4CCOCC4)nc32)C1 (configuration not stated),-18.13,-11.07
Fc1cccc(-c2nc(CN3CCCC3Cn3cccn3)co2)c1 (configuration not stated),-5.774,19.19
CN1CCN(c2ncccc2N)CC1,-36.91,-5.875 and -22.92
Cc1ccc(C)c(CS(=O)(=O)CC(=O)N(C)Cc2cccc(F)c2)c1,-24.62,-9.702 and -29.43
Cc1ccc(NC(=O)NCCCn2nc3ccccn3c2=O)cc1,-7.571,-12.3
CC(=O)N1CCC(c2nc3ccc(NC4CCC4)cn3n2)CC1.O=C(O)C(F)(F)F,-23.75,6.208
Oc1ccc([C@H]2Oc3cc(O)cc(O)c3C[C@@H]2O)cc1,22.06,2.984 and -9.127
Cc1nn(C2CCS(=O)(=O)C2)c(O)c1Cc1ccc(Br)cc1 (configuration not stated),-26.79,-35.6
Cc1cc(CN2C[C@@H](C)[C@@]3(CCN(C)C3=O)C2)oc1C.O=C(O)C(F)(F)F,-15.51,-10.22 and -32.22
COc1c(C2CCCN2Cc2cn3ccsc3n2)c(C)nn1C (configuration not stated),-21.11,-14.75
Cc1ccc2c(n1)N(CC(C)C)CCN(S(C)(=O)=O)C2.O=C(O)C(F)(F)F,10.08,15.52
N#Cc1ccccc1C(=O)N1C[C@@H](CN2CCOCC2)[C@@H](CO)C1,7.862 and -8.544,-1.971
CN(C)C(=O)CN1CCOCC2(C1)CN(c1ncccn1)CCO2.O=C(O)C(F)(F)F (configuration not stated),-22.9,-21.34
CC(C)(C)OC(=O)Cn1nc(C2CC2)cc(C(F)(F)F)c1=O,20.49,19.4
CC(NCc1cnc(C2CCC2)s1)c1ccc(-n2cccn2)cc1 (configuration not stated),43.94,35.96
Nc1nc(N2CCCC(COc3ccc(F)cc3)C2)c2nc[nH]c2n1 (configuration not stated),27.14,21.7
Cc1cnn(CC2CCCN2C(=O)CCc2ccsc2)c1 (configuration not stated),33.13,29.65
c1cncc(Cc2nnc3n2CCN(CC2CCOC2)CC3)c1 (configuration not stated),-23.72,0.6731
O=C(CCc1ccccc1F)N1CCCC(OCc2cccnc2)C1 (configuration not stated),4.235,29.03
CC(=O)c1ccc(NC(=O)C(NC(=O)Nc2ccccc2)C(C)C)cc1 (configuration not stated),-8.169,0.5132
Cc1nc(C)n(CC2CCCN(CCCc3ccccc3)C2)n1 (configuration not stated),-25.22,-4.49
Cc1nc(N2CCCC2C(=O)NC(C)(C)CO)nc2ccccc12 (configuration not stated),14.2,40.23
Cc1nc(CN2CCCC2C(=O)OCc2ccccc2)oc1C (configuration not stated),1.048,17.09 and -7.557
CNc1cc2c(nn1)CCN(C(=O)C1CCCc3ccccc31)C2 (configuration not stated),-0.8225,1.131
Cc1ncc(C(=O)Nc2cncnc2N(C)C)c(Cl)c1Cl,14.98,-8.744 and -4.186
CCOC(=O)CSc1nnc([C@@H](N)C(C)CC)o1.Cl (some centres not stated),-9.305,1.457 and 11.76
CN(C)CC1CCN(Cc2nccn2CC(F)(F)F)CC1,-23.55,-24.13
COc1ccccc1OC1(C(=O)O)CCN(c2nccnc2OC)CC1,7.098,25.21
CC(C)Oc1ccc(CNC(=O)NCC(C)(C)C(N)=O)cc1F,6.722,-17.17
[H][C@]12CC[C@]([H])(CN(Cc3ccccn3)C1)N(C(=O)c1cc(C)nc(N)n1)C2,9.707,-14.1
COC(C)Cc1nc(-c2cnn3c(C)cc(C)nc23)no1 (configuration not stated),-22.62,-26.55
O=C(O)C(F)(F)F.[H][C@@]12CCN(C(=O)c3ccsc3)[C@]1([H])CCC(=O)N2Cc1cccc(C)n1,-15.2,1.637
CC(=O)NCCCSC1CCN(c2c(F)cccc2F)C1=O (configuration not stated),-12.58,1.892 and 3.879
COc1ncc(CN2CCOC(C)(C(=O)N3CCOCC3)C2)cn1 (configuration not stated),15.24,32.68
CC(C)(C)c1nc(CNc2cc3c(cc2Cl)NC(=O)CO3)no1,7.303,-14.82
CCc1nc(CN2CCCC(Cn3nc(C)nc3C)C2)no1 (configuration not stated),7.887,16.14
Cc1cnn(C2CCCN(C(=O)c3ccnc(-n4ccnc4)c3)C2)c1 (configuration not stated),-2.508,12.56
Cc1ccc(Oc2c(F)cccc2OC[C@@H](N)CC(C)C)cc1,74.14,87.35
O=C(O)C(F)(F)F.[H][C@@]12OCCN(CCOCc3ccccc3)[C@@]1([H])CC[C@@H]2OCC,4.201,-7.175
CC(C)NC(=O)c1ccc2c(c1)nc1n2CCN(C(C)C)C1,-13.94,-23.98
O=S(=O)(NC1CC1)c1cccc(Br)c1,-8.858,-11.89 and 3.358
CCC1(CO)CCCN(C(=O)c2ccc(N3CCN(C)CC3)cc2)C1 (configuration not stated),23.87,19.2
Cc1nc(C)n(C2CCCN(C(=O)CCn3ccnn3)C2)n1 (configuration not stated),-22.28,-8.076
Cc1nn(CC(O)CN2CCc3ccccc3C2)c(=O)c2ccccc12 (configuration not stated),5.942,16.03
CCN(Cc1noc(C)n1)C(=O)CCc1scnc1C,-30.66,-1.805
CN1C(=O)CC(c2ccncc2)C12CCN(c1ncccn1)CC2.O=C(O)C(F)(F)F (configuration not stated),-15.36,-36.59

5 of the entries, repeated:

| structure | Mtb cholesterol medium | Mtb glucose medium |
|---|---|---|
| `COC(C)Cc1nc(-c2cnn3c(C)cc(C)nc23)no1` (configuration not stated) | -22.62 | -26.55 |
| `COCCN1CCCN(C(=O)c2scnc2C)CC1` | -6.831 | 6.784 |
| `Cc1nc(C)n(CC2CCCN(CCCc3ccccc3)C2)n1` (configuration not stated) | -25.22 | -4.49 |
| `NC[C@H]1CC[C@H](C(NC(=O)c2ccccn2)c2ccccn2)CC1` (some centres not stated) | -20.53 | -20.87 |
| `Cc1cnn(CC2CCCN2Cc2cc(=O)n3cc(C)ccc3n2)c1` (configuration not stated) | 10.47 | -30.04 and 4.424 |

From ChEMBL document CHEMBL3988442, “University of Dundee, Small-Polar-MMV Screening Library” (2021).